Reference: PubChem BioAssay AID1259425 (University of Nebraska Medical Center, 2018)
Shown is an unselected part of about 14,000 reagents. Not given: the time to read-out.

Test: 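Find knockdowns that reproduce the gene expression pattern seen when KSR1 is lost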 (primary screen)
Cells: HCT116 human colon cancer cells
Reagent: siRNA pool against human genes, 50 nM siRNA
Measured: 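After 50 nM siRNA pool, branched-DNA assay measures six marker transcripts per well, minus blank, normalised to the geometric mean of two housekeeping transcripts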
Reading the numbers: BNIP3L mRNA: higher = more BNIP3L transcript after knockdown; NDRG1 mRNA: higher = more NDRG1 transcript after knockdown; BNIP3 mRNA: higher = more BNIP3 transcript after knockdown; ALDOC mRNA: higher = more ALDOC transcript after knockdown; ACSL5 mRNA: higher = more ACSL5 transcript after knockdown

Gene | BNIP3L mRNA, set 1 | NDRG1 mRNA, set 1 | BNIP3 mRNA, set 1 | ALDOC mRNA, set 1 | ACSL5 mRNA, set 1
PLPPR1 | 0.129 | 0.221 | 0.239 | 0.0472 | 0.364
CXCL3 | 0.247 | 0.137 | 0.28 | 0.0604 | 0.121
DPY19L1 | 0.0906 | 0.178 | 0.303 | 0.0321 | 0.102
DHDDS | 0.107 | 0.13 | 0.267 | 0.0566 | 0.103
TRAT1 | 0.117 | 0.387 | 0.422 | 0.000785 | 0.364
RTL6 | 0.366 | 0.145 | 0.184 | 0.079 | 0.379
ARHGAP26 | 0.0945 | 0.128 | 0.188 | 0.0408 | 0.0547
SLC22A14 | 0.128 | 0.195 | 0.356 | 0.0353 | 0.111
DEPP1 | 0.111 | 0.0422 | 0.307 | 0.0412 | 0.249
DDX43 | 0.0734 | 0.145 | 0.29 | 0.0198 | 0.146
NAP1L2 | 0.114 | 0.134 | 0.299 | 0.0439 | 0.14
SEC23A | 0.0265 | 0.251 | 0.262 | 0.0214 | 0.122
PFKFB1 | 0.066 | 0.328 | 0.47 | 0.0191 | 0.257
GLIPR1L1 | 0.102 | 0.158 | 0.165 | 0.0293 | 0.136
TINAG | 0.121 | 0.298 | 0.293 | 0.0123 | 0.156
BCL7B | 0.136 | 0.256 | 0.438 | 0.0171 | 0.386
STK3 | 0.227 | 0.107 | 0.649 | 0.00792 | 0.299
CDC50A | 0.0772 | 0.0815 | 0.411 | 0.0303 | 0.0862
ZNF473 | 0.117 | 0.227 | 0.415 | 0.0603 | 0.22
TRIP6 | 0.0531 | 0.277 | 0.233 | 0.035 | 0.126

A stretch taken from the entries so far, as a working copy:
Gene | BNIP3L mRNA, set 1 | NDRG1 mRNA, set 1 | BNIP3 mRNA, set 1 | ALDOC mRNA, set 1 | ACSL5 mRNA, set 1
CXCL3 | 0.247 | 0.137 | 0.28 | 0.0604 | 0.121
DPY19L1 | 0.0906 | 0.178 | 0.303 | 0.0321 | 0.102
